This is an account of results in patent US20180040391A1, “GAS-INSULATED MEDIUM-OR HIGH-VOLTAGE ELECTRICAL APPARATUS INCLUDING HEPTAFLUOROISOBUTYRONITRILE AND TETRAFLUOROMETHANE” (General Electric Technology GmbH, priority 2015, published 2018).

For data set [1] the following is noted: cited from earlier work.
Data set [2] in a line: relative dielectric strength normalized relative to SF6. It is filed as physicochemical. To be noted: atmospheric pressure, DC voltage, two steel electrodes of diameter 2.54 cm spaced apart by 0.1 cm.
Data set [3] can be described thus: global warming potential (GWP).
[4] abbreviates: Table IV, components of the mixture for −30° C.
[5] abbreviates: Table V, components of the mixture for −25° C.
Where [6] appears, read: calculated over 100 years in accordance with the IPCC method, 2013.

Where two headings read alike, the source gives them in different places.

As for `FC(F)(F)C(F)(F)C(F)(F)F` [C3F8], the GWP in data set [1] (prior-art gases) was 7000.

As for `N#N` [N2, nitrogen, reference compound], the GWP in data set [1] (dilution gases) is 0. Besides, the “relative dielectric strength, normalized relative to SF6” value in data set [2] is reported as 0.35-0.4. As to `O=C=O` [CO2, carbon dioxide, reference compound], the GWP in data set [1] (dilution gases), in data set [3] (setting [4]) and in data set [3] (setting [5]) was 1 throughout. Turning to `[He]` [helium], in data set [1] (dilution gases), the GWP is 0. Regarding `FC(F)(F)C(F)(F)C(F)(F)C(F)(F)F` [C4F10], the GWP in data set [1] (prior-art gases) is recorded as 7000.

As for `FC(F)(F)F` [CF4, tetrafluoromethane], the GWP in data set [1] (prior-art gases), in data set [3] (setting [4]), in data set [3] (setting [5]) and in data set [3] (setting [6]) was 6500 each time. For the same compound, the “relative dielectric strength, normalized relative to SF6” value in data set [2] is 0.4-0.5.

Consider `FS(F)(F)(F)(F)F` [SF6, sulfur hexafluoride, reference compound], for which, in data set [1] (relative to CO2 over 100 years, IPCC report 2013), the “global warming potential (GWP)” value is given as 23500. Also, the “relative dielectric strength, normalized relative to SF6” value in data set [2] was determined as 1.0.

Consider `O=O` [oxygen], for which the GWP in data set [1] (dilution gases) is listed as 0. For the compound `[N-]=[N+]=O` [nitrous oxide], in data set [1] (dilution gases), the GWP is on record as 310.

With `FC(F)(F)C(F)(F)F` [C2F6], the GWP in data set [1] (prior-art gases) is listed as 9200.

On to `FC1(F)C(F)(F)C(F)(F)C1(F)F` [c-C4F8], for which the GWP in data set [1] (prior-art gases) is 8700. Regarding `N#CC(F)(C(F)(F)F)C(F)(F)F` [i-C3F7CN, 2,3,3,3-tetrafluoro-2-trifluoromethyl propanenitrile], the GWP in data set [3] (setting [4]), in data set [3] (setting [5]) and in data set [3] (setting [6]) was 2210 each time. Besides, in data set [2], the “relative dielectric strength, normalized relative to SF6” value was found to be 2.6. In the case of `FC(F)(F)I` [CF3I, trifluoroiodomethane], in data set [1] (prior-art gases), the GWP result is “less than 5”.
